For some of these results: At least one compound was matched to its structure with a doubt left. Some entries share one result that the patent states for a list of compounds.
What was measured:
[1] = room temperature; cited from earlier work
[2] = Accelerated in-lab stability of axitinib in a representative emulsion (F134); type: physicochemical; details: 40, 50 and 60° C.

| SMILES | Solubility in water [1] | Time axitinib kept stable in the same kind of emulsion system [2] |
| --- | --- | --- |
| CNC(=O)c1ccccc1Sc1ccc2c(/C=C/c3ccccn3)n[nH]c2c1 [axitinib] | less than 0.001 mg/mL | at least 3 months |
| COC(=O)c1ccc2c(c1)NC(=O)/C2=C(\Nc1ccc(N(C)C(=O)CN2CCN(C)CC2)cc1)c1ccccc1 [nintedanib] | less than 0.001 mg/mL | – |
| Cc1ccc(Nc2nccc(N(C)c3ccc4c(C)n(C)nc4c3)n2)cc1S(N)(=O)=O [pazopanib] | less than 0.001 mg/mL | – |

Reference: US11666533B2, “Emulsion formulations of multikinase inhibitors” (Cloudbreak Therapeutics, LLC, priority 2018, dated 2023)
